Experimental data published in publication PMC8016319.
These are yes or no findings as the source states them, for the method shown. In cells and extracts the contact can be indirect. Some binding calls cover weakened binding; strength is not graded here.

Sequences of proteins named here, by UniProt entry; tags and fusion partners are left off.
UniProt Q3TKT4: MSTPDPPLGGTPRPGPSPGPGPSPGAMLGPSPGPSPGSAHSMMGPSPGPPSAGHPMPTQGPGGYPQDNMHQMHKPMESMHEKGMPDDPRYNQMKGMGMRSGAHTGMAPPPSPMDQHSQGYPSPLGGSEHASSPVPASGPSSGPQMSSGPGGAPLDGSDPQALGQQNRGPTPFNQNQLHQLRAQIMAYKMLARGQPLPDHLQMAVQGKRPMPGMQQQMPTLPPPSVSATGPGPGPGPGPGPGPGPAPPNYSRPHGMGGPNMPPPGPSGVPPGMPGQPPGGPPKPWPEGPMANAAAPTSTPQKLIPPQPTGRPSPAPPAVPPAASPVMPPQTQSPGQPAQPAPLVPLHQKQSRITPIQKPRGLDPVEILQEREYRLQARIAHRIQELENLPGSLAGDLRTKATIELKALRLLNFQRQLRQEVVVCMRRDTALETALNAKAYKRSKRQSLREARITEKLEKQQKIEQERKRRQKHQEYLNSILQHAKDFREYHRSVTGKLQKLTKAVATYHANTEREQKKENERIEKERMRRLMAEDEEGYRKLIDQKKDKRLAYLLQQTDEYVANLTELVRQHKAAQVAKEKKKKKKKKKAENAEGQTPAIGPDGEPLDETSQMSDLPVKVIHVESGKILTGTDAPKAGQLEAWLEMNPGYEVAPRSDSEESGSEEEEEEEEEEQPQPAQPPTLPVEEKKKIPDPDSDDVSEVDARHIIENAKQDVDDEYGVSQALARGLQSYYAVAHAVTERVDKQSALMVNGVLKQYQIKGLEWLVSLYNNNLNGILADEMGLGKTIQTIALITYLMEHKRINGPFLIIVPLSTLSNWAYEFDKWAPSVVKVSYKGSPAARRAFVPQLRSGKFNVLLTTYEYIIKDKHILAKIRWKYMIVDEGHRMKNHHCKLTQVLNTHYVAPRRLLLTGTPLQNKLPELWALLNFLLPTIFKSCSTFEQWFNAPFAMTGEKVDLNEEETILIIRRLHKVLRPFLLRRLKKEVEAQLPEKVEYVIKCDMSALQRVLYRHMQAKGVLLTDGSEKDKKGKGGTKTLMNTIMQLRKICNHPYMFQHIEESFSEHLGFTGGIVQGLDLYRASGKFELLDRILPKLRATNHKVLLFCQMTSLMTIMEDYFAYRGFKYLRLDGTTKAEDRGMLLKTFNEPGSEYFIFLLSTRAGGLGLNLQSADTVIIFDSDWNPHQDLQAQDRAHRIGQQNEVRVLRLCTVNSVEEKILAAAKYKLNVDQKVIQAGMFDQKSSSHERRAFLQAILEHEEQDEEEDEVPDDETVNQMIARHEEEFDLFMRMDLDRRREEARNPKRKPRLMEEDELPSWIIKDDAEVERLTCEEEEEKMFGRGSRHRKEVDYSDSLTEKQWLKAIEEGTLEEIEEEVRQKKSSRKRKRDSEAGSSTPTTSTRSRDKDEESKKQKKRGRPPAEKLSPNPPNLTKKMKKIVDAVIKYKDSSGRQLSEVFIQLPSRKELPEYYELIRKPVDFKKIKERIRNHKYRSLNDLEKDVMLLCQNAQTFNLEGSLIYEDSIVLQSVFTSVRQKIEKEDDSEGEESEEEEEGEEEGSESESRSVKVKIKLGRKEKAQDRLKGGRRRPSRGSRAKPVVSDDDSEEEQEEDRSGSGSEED
UniProt P46938: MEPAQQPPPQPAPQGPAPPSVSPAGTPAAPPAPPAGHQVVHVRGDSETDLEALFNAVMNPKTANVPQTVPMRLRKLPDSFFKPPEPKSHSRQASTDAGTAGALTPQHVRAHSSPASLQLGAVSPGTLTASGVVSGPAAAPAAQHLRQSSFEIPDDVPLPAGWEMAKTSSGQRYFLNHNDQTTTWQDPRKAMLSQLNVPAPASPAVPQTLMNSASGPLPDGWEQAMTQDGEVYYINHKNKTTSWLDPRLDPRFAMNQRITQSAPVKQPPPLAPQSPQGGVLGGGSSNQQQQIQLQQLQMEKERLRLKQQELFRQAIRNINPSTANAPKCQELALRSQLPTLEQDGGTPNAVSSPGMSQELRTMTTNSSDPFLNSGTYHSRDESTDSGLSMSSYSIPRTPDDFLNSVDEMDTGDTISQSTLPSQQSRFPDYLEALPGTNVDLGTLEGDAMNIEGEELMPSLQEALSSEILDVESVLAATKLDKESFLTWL

Target: Brg1 (mouse (endogenous in O9-1)) (UniProt Q3TKT4)
Assay: co-IP; extracts (RIPA buffer) of O9-1 cells transfected with control siRNA (for Brg1-Yap also BAF155 or BAF155/170 siRNA, 72 h); IP with anti-pan Tead or anti-Brg1 antibody at 4°C overnight, protein A-agarose beads, IgG control; western blot for Brg1 or Yap

Yap (from UniProt P46938 1-488)
binding: binds
